No constants are given. Whether binding was seen depends on the method and setting. Some results given as binding are weak or reduced against the parent protein; the word gives no strength. Tags and fused reporters may be left off the sequences shown.
Assays:
[1] = target: T1, recombinant His-tagged murine Notch2 NRR domain, expressed and purified in house (mouse) (UniProt O35516); test: ELISA, antigen coated at 1 µg/mL, antibody serially diluted from 666 nM
T1 sequence (looked up): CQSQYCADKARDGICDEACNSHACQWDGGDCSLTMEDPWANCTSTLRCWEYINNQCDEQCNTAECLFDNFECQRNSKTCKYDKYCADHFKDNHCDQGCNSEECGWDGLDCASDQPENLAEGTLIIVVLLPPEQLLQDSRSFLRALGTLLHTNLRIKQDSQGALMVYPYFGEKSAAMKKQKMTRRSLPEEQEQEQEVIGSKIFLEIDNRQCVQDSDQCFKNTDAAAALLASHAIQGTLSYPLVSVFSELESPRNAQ

[2] = target: T2, recombinant His-tagged human Notch2 NRR domain, expressed and purified in house (human) (UniProt Q04721); test: as above
T2 sequence (looked up): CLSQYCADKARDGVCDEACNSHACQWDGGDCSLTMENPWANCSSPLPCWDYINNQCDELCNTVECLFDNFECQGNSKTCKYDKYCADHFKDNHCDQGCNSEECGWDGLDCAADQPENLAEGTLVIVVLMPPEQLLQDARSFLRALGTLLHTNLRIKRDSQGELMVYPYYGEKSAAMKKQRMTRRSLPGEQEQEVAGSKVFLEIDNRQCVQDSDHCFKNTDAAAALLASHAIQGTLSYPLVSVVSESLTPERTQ

[3] = target: T1, recombinant His-tagged murine Notch2 NRR domain, expressed and purified in house (mouse); test: BLI, antibody on anti-human IgG Fc biosensors, Notch2 NRR protein at 1000 nM to 31 nM
[4] = target: T2, recombinant His-tagged human Notch2 NRR domain, expressed and purified in house (human); test: as above
[5] = target: T1, recombinant His-tagged murine Notch2 NRR domain, expressed and purified in house (mouse); test: ELISA, antigen coated at 1 µg/mL, antibody serially diluted from 200 nM
[6] = target: T2, recombinant His-tagged human Notch2 NRR domain, expressed and purified in house (human); test: as above

Measured: binding

B1: PRO034 (antibody, human IgG1, kappa, L234A L235A, V domains shown)
VH: EVQLVESGGGLVQPGGSLRLSCAASGYSFTSYGMSWVRQAPGKGLEWVSYIYPYSGATYYADSVKGRFTISADTSKNTAYLQMNSLRAEDTAVYYCARHSGYYRISSAMDVWGQGTLVTVSS
VL: DIQMTQSPSSLSASVGDRVTITCRASQSISSYLAWYQQKPGKAPKLLIYGASSRASGVPSRFSGSGSGTDFTLTISSLQPEDFATYYCQQYYSSPLTFGQGTKVEIKR
binds: [1] | [2] | [3] | [4]

B2: PRO036 (antibody, human IgG1, kappa, L234A L235A, V domains shown)
VH: EVQLVESGGGLVQPGGSLRLSCAASGYTFSSYGMSWVRQAPGKGLEWVSYIYPYSGATYYADSVKGRFTISADTSKNTAYLQMNSLRAEDTAVYYCARHSGYYRISSAMDVWGQGTLVTVSS
VL: DIQMTQSPSSLSASVGDRVTITCRASQSVRSFLAWYQQKPGKAPKLLIYRASIRASGVPSRFSGSGSGTDFTLTISSLQPEDFATYYCQQYYISPWTFGQGTKVEIKR
binds: [1] | [2] | [3] | [4]

B3: PRO037 (antibody, human IgG1, kappa, L234A L235A, V domains shown)
VH: EVQLVESGGGLVQPGGSLRLSCAASGYTFSSYGMSWVRQAPGKGLEWVSYIYPYSGATYYADSVKGRFTISADTSKNTAYLQMNSLRAEDTAVYYCARHSGYYRISSAMDVWGQGTLVTVSS
VL: DIQMTQSPSSLSASVGDRVTITCRASQSNRRFLAWYQQKPGKAPKLLIYGASSRASGVPSRFSGSGSGTDFTLTISSLQPEDFATYYCQQYYISPLTFGQGTKVEIKR
binds: [5] | [6] | [3] | [4]

B4: PRO035 (antibody, human IgG1, kappa, L234A L235A, V domains shown)
VH: EVQLVESGGGLVQPGGSLRLSCAASGYTFSSYGMSWVRQAPGKGLEWVSYIYPYSGATYYADSVKGRFTISADTSKNTAYLQMNSLRAEDTAVYYCARHSGYYRISSAMDVWGQGTLVTVSS
VL: DIQMTQSPSSLSASVGDRVTITCRASQSNRRFLAWYQQKPGKAPKLLIYGASSRASGVPSRFSGSGSGTDFTLTISSLQPEDFATYYCQQYYISPLTFGQGTKVEIKR
binds: [5] | [6] | [3] | [4]

Reference: patent publication US20250353906A1
